The target of assay [1] is P^456, C-terminal fragment of properdin (res. 256-469) (human) (UniProt P27918). The experiment in a line: crystal structure; co-expressed and co-purified P^N1/456 (0.2 M potassium sulfate, 20% PEG 3350; 2.0-2.9 Å) and P^N12/456 (100 mM sodium citrate pH 5.5, 20% PEG 3000; 2.5-3.9 Å), 18°C; both purified.
Assay [2] shares this target. The assay can be described thus: pull-down; large-scale (1 L) co-expression in HEK293-EBNA, P^456 with C-terminal 6xHis-tag, no tag on the N-terminal fragment; Ni-Sepharose Excel (IMAC) from the supernatant, washes with 500 mM NaCl.
For assay [3] the target is unchanged. The experiment in a line: pull-down; small-scale (4 ml) co-expression of N- and C-terminal fragments in HEK293-EBNA, one of the two with a 6x-His tag; Ni-Sepharose Excel from the supernatant, washes with 500 mM NaCl and 10 mM imidazole; no further purification.

By UniProt entry, the sequences of proteins in these tests, tags left out. Where a name states a change or a piece, a line headed by the entry shows the natural chain unless it says otherwise. Chains listed by the source or under a name are the forms on record and can include a tag or linker.
P^456, C-terminal fragment of properdin (res. 256-469) (P27918, form named): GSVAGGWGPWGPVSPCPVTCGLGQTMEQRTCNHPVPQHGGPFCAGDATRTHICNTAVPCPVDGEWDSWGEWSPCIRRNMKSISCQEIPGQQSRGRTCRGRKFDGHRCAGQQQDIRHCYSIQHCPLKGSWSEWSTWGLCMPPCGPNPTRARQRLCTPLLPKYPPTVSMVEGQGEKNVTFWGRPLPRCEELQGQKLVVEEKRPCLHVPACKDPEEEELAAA
P^N1, N-terminal fragment of properdin (res. 28-132) (P27918, form named): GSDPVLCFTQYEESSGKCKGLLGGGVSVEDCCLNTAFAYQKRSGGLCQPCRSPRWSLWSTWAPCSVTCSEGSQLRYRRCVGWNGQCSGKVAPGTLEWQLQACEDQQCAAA
P^N123, N-terminal fragment of properdin (res. 28-255) (P27918, form named): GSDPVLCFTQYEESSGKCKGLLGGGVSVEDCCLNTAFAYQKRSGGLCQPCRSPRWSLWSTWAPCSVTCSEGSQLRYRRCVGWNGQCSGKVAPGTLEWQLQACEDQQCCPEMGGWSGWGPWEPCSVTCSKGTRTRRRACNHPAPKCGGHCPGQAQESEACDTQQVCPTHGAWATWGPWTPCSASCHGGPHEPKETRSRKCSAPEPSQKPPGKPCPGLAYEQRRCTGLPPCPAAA

Experimental findings from article PMC6736995, “Insights Into Enhanced Complement Activation by Structures of Properdin and Its Complex With the C-Terminal Domain of C3b” (Frontiers in Immunology, 2019) are described below.

No constants are given. Whether binding was seen depends on the method and setting. For some of these results: In cells and extracts the contact can be indirect. Some results given as binding are weak or reduced against the parent protein; the word gives no strength.

Turning to “P^N1, N-terminal fragment of properdin (res. 28-132) (from UniProt P27918 28-132) (domain or fragment)”, the binding entry in assay [1], in assay [2] and in assay [3] was “binds” each time.

“P^N123, N-terminal fragment of properdin (res. 28-255) (from UniProt P27918 28-255) (domain or fragment)”: the binding entry in assay [3] was “binds”.

For “P^N12, N-terminal fragment of properdin (res. 28-191) (from UniProt P27918 28-191) (domain or fragment)”, the binding result in assay [1], in assay [2] and in assay [3] was “binds” in each case.
